Assay results reported in patent US20260049064A1, “PROTEIN:PROTEIN INTERACTION INHIBITORS” (Purdue Research Foundation, priority 2022, published 2026).
No dose or concentration is given here for some results.

Tested on: LNCaP cells
Assay: RNA-seq differential expression in LNCaP cells
Type: cell-based, human
Conditions: 72 hours

SMILES: CCc1noc(C)c1COc1cccc(C(=O)NNC(=O)c2ccc3ccccc3n2)c1 [compound 17, N′-(3-((3-ethyl-5-methylisoxazol-4-yl)methoxy)benzoyl)quinoline-2-carbohydrazide]
- differentially expressed genes (DEGs) versus DMSO control: 1,493 genes
- down-regulated genes: 582 genes
- up-regulated genes: 911 genes
